Measurements reported in the supplement of paper PMC10849652.
Some of the results follow.

Sequences of proteins named here, by UniProt entry; tags and fusion partners are left off. A change or cut given only in a name is not applied to a line headed by its entry.
UniProt P23786: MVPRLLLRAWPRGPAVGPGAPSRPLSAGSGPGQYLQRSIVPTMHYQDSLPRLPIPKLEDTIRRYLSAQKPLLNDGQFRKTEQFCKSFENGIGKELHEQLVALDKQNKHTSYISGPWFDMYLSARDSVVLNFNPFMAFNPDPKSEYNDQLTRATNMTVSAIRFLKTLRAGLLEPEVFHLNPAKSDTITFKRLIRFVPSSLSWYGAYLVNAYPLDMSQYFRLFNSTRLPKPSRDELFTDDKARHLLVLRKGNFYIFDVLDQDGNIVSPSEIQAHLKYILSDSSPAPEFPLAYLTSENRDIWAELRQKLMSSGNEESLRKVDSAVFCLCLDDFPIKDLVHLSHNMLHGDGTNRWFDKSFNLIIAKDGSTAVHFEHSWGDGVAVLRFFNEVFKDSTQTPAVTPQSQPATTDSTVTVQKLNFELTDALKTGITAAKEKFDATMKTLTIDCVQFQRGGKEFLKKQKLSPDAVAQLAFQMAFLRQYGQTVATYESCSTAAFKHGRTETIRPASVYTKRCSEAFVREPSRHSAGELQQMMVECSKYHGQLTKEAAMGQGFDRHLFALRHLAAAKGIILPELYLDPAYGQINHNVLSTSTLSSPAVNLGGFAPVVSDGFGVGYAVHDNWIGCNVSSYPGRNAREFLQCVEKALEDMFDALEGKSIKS
UniProt P53618: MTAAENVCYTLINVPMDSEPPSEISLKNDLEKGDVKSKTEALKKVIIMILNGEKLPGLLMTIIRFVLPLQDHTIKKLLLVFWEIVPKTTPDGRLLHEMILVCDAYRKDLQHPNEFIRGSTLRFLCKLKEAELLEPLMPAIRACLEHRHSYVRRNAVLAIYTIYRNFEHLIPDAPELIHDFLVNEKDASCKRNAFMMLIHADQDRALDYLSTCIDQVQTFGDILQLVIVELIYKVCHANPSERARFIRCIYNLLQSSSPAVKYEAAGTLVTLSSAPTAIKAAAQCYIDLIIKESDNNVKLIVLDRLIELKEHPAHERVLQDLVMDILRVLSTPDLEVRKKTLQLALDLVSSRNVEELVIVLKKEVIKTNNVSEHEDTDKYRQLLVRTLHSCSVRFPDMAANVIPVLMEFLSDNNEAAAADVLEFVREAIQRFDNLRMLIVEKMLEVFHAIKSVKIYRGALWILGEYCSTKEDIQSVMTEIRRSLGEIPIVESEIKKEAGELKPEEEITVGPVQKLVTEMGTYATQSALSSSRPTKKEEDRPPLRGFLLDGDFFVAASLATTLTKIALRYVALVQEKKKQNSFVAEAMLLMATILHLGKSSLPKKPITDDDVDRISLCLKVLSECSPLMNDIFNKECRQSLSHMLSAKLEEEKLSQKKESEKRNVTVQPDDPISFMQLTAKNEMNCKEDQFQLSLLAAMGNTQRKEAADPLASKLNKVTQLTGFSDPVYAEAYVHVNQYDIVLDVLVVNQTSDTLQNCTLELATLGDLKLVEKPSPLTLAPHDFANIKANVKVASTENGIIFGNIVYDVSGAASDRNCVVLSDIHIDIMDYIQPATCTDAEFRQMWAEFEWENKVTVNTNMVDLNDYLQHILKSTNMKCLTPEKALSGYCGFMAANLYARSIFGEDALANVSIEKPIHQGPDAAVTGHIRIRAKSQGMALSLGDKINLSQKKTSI
UniProt Q9P000, whole entry, looked up: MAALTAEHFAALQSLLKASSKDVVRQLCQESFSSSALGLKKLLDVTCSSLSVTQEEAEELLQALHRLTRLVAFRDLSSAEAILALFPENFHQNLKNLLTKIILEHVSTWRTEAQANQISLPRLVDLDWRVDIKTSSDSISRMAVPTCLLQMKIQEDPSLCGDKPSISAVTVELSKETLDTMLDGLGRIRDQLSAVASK
UniProt Q9Y678: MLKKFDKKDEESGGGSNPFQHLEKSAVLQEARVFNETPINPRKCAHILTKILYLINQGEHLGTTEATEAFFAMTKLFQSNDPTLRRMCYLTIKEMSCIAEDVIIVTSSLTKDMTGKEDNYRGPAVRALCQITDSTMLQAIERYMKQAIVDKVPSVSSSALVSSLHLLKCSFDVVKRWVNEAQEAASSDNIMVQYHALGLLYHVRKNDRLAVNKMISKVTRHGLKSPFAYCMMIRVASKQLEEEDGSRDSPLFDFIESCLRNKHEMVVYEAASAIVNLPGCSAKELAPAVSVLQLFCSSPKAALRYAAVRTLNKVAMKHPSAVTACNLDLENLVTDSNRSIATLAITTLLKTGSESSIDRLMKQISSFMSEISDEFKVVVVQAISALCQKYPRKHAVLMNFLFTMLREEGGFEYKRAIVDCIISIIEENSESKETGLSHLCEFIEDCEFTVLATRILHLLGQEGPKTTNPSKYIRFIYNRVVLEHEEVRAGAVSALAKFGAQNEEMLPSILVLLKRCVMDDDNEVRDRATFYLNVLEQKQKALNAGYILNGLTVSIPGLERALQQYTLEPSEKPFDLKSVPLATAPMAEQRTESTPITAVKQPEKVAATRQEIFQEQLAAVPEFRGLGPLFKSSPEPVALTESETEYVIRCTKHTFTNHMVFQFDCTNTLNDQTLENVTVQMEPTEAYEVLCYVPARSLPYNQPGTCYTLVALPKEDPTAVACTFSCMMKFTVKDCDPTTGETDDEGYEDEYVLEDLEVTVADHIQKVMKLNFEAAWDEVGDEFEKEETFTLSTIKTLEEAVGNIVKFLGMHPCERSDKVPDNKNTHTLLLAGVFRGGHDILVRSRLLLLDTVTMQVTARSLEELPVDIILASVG
UniProt Q8N8Q8: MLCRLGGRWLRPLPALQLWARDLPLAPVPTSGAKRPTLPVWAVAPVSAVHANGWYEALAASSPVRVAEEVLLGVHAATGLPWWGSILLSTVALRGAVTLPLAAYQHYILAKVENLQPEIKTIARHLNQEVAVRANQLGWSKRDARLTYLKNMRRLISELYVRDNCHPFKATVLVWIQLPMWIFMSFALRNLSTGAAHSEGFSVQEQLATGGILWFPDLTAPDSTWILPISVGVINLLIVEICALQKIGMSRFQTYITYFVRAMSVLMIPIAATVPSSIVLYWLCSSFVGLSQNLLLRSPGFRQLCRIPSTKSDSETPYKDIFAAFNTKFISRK
UniProt P48729: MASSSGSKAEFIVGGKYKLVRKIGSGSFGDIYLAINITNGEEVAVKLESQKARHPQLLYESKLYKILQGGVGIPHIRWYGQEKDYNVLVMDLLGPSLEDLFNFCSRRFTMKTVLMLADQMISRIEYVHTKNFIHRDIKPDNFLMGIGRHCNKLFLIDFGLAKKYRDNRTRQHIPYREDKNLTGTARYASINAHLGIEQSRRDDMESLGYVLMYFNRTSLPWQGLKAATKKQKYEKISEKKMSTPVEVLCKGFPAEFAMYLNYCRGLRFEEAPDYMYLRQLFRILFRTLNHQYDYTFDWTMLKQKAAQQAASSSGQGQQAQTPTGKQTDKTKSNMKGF
UniProt P46108: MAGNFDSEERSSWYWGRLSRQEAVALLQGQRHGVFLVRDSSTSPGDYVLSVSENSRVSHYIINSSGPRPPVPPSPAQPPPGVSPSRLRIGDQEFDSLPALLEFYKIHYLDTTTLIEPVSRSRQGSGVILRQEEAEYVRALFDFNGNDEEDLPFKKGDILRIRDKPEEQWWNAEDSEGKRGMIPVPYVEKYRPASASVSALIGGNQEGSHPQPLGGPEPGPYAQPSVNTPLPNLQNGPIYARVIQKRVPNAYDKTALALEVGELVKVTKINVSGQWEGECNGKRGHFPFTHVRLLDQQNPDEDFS
UniProt Q9Y6G5, whole entry, looked up: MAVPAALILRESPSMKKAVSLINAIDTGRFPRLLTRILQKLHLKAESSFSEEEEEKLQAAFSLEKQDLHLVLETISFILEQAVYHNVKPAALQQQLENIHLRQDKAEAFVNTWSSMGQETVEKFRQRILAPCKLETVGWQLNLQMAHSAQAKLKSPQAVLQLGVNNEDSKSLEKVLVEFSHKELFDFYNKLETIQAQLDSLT
UniProt Q9BSW2: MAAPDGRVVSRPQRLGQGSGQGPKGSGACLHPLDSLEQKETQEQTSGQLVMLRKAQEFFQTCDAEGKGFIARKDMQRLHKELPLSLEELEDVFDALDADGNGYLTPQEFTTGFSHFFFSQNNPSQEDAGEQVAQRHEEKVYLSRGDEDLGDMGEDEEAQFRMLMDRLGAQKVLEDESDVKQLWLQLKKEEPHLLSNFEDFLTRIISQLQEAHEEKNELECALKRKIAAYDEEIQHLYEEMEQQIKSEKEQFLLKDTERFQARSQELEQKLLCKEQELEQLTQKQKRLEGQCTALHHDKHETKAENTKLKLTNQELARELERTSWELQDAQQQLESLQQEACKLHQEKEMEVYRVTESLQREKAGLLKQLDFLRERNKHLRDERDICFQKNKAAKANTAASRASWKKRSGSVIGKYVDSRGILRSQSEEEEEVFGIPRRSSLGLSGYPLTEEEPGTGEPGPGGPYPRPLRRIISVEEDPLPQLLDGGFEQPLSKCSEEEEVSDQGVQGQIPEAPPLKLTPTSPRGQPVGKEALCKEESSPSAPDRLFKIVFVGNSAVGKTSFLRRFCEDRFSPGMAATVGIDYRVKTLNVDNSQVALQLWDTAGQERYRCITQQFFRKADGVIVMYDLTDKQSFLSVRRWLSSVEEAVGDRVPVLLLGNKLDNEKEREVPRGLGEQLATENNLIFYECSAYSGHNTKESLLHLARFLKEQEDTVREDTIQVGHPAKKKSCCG
UniProt O75390: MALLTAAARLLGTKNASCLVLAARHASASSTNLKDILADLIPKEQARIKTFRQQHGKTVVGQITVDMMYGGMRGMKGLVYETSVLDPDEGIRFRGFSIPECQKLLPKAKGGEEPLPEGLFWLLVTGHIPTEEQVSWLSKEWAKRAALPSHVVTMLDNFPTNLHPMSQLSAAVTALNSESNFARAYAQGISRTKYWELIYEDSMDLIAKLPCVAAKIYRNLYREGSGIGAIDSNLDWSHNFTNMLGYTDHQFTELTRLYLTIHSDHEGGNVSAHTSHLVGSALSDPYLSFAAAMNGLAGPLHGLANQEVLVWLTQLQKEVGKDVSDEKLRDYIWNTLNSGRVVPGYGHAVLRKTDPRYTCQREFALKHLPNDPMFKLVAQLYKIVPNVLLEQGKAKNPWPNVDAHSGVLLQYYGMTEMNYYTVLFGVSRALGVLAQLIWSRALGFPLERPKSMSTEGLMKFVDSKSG
UniProt Q9P021, whole entry, looked up: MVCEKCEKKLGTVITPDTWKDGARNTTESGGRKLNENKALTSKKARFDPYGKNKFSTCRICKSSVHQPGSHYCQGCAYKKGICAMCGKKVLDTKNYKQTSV
UniProt Q9NQ92: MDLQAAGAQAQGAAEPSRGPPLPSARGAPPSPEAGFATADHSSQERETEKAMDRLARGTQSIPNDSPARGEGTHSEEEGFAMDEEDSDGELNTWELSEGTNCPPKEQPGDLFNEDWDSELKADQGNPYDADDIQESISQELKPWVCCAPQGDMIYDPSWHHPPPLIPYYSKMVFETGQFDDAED
UniProt Q7KZN9: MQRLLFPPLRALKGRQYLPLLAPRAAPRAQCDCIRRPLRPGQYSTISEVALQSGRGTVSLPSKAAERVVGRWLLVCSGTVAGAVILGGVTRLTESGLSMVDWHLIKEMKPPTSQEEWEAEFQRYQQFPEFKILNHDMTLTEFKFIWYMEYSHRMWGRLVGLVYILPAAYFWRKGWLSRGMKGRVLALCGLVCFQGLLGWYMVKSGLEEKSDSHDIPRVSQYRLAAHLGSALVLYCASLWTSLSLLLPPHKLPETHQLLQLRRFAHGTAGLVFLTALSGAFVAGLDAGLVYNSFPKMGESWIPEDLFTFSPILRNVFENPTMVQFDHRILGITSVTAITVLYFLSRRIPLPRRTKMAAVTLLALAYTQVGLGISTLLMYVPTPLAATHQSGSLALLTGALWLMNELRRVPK
UniProt Q7L5N1: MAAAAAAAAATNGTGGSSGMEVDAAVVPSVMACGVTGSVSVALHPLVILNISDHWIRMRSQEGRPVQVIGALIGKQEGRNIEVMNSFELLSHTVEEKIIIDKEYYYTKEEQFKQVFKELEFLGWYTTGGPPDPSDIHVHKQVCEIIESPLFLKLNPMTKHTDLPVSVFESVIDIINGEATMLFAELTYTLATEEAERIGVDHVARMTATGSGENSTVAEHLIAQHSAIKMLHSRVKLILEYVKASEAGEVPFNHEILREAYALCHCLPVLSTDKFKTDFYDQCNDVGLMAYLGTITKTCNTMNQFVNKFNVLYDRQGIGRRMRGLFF
UniProt A4D126: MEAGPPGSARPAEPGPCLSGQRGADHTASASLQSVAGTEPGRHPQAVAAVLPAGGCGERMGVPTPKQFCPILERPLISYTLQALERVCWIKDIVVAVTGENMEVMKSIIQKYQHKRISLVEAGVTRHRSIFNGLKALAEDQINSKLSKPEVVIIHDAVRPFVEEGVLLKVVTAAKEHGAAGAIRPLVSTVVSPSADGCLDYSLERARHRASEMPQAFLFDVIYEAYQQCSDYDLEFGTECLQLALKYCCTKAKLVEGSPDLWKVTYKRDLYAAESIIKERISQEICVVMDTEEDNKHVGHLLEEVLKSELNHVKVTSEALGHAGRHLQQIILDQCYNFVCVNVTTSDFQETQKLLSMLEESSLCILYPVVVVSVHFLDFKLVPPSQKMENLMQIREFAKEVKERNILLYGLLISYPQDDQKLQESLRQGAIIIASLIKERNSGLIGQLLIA

Key:
Test in all cases: log2 fold change, soluble protein after heating vs DMSO (PISA); higher = thermal stabilisation; K562 cells, 10 uM, 30 min; active = over 0.2 and 3.5 SD of the protein, either way, in both replicates (recomputed)
[1] = compound: NC(=O)Nc1cc(-c2cccc(F)c2)sc1C(=O)N[C@H]1CCCNC1
In short: (§1)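 Quantification of soluble protein used TMTpro 16plex LC-MS/MS, with channel sums equalised. Samples were the supernatant after 21,000xg for 90 min of pooled aliquots from K562 cells (2×10^6 cells/mL) treated with 10 μM compound for 30 min, heated for 3 min over 48°C-58°C, and extracted in PBS with 0.5% NP-40 at 4°C. Values, from duplicates, describe thermal stability against control samples on a log2 fold-change scale.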

[2] = compound: NC(=O)c1cnc(N[C@@H]2CCCC[C@@H]2N)nc1Nc1cccc(-n2nccn2)c1
In short: as §1

[3] = compound: NC1(c2ccc(-c3nc4ccn5c(=O)[nH]nc5c4cc3-c3ccccc3)cc2)CCC1
In short: as §1

[4] = compound: NCC(=O)Nc1ccc(-n2nc(C(F)(F)F)cc2-c2ccc3c(ccc4ccccc43)c2)cc1
In short: as §1

entinostat = compound: Nc1ccccc1NC(=O)c1ccc(CNC(=O)OCc2cccnc2)cc1 [entinostat]
In short: as §1

vorinostat = compound: O=C(CCCCCCC(=O)Nc1ccccc1)NO [vorinostat]
In short: as §1

citarinostat = compound: O=C(CCCCCCNC(=O)c1cnc(N(c2ccccc2)c2ccccc2Cl)nc1)NO [citarinostat]
In short: as §1

silmitasertib = compound: O=C(O)c1ccc2c(c1)nc(Nc1cccc(Cl)c1)c1ccncc12 [silmitasertib]
In short: as §1

[5] = compound: O=C1NC(=O)C(c2cnc3ccccn23)=C1c1cn2c3c(cc(F)cc13)CN(C(=O)N1CCCCC1)CC2
In short: as §1

[6] = compound: c1cc(OCCN2CCCCC2)cc(-c2n[nH]c3ccc(-c4nnc[nH]4)cc23)c1
In short: as §1

Measured: log2 fold change

CPT2 (UniProt P23786)
inactive: [1] -0.045 | [2] -0.264 | [3] 0.193 | [4] -0.052 | entinostat 0.174 | vorinostat -0.097 | citarinostat -0.109 | silmitasertib -0.08 | [5] 0.014 | [6] 0.157

COPB1 (UniProt P53618)
inactive: [1] -0.004 | [2] -0.004 | [3] -0.082 | [4] -0.009 | entinostat 0.048 | vorinostat 0.023 | citarinostat 0.073 | silmitasertib 0.012 | [5] -0.004 | [6] -0.034

COMMD9 (UniProt Q9P000)
inactive: [1] 0.014 | [2] 0.001 | [3] -0.102 | [4] 0.064 | entinostat 0.073 | vorinostat -0.07 | citarinostat 0.023 | silmitasertib -0.009 | [5] -0.109 | [6] -0.082

COPG1 (UniProt Q9Y678)
inactive: [1] -0.002 | [2] 0.007 | [3] -0.053 | [4] -0.013 | entinostat 0.016 | vorinostat 0.022 | citarinostat 0.059 | silmitasertib 0.016 | [5] -0.044 | [6] -0.025

COPS8 (UniProt Q99627)
inactive: [1] 0.02 | [2] 0.038 | [3] -0.042 | [4] 0.043 | entinostat 0.034 | vorinostat 0.041 | citarinostat 0.056 | silmitasertib 0.044 | [5] -0.077 | [6] 0.018

COX18 (UniProt Q8N8Q8)
inactive: [1] -0.051 | [2] -0.059 | [3] -0.034 | [4] -0.019 | entinostat -0.027 | vorinostat -0.043 | citarinostat 0.046 | silmitasertib -0.009 | [5] -0.069 | [6] -0.047

CSNK1A1 (UniProt P48729)
inactive: [1] -0.067 | [2] -0.001 | [3] 0.031 | [4] 0.019 | entinostat 0.023 | vorinostat -0.087 | citarinostat 0.016 | silmitasertib 0.048 | [5] 0.243 | [6] -0.084

CRK (UniProt P46108)
active: [1] -0.81
inactive: [2] 0.004 | [3] -0.063 | [4] -0.011 | entinostat 0.026 | vorinostat -0.002 | citarinostat 0.061 | silmitasertib 0.062 | [5] -0.016 | [6] -0.016

COX7B (UniProt P24311)
inactive: [1] 0.094 | [2] -0.001 | [3] -0.028 | [4] 0.02 | entinostat -0.054 | vorinostat 0.012 | citarinostat -0.013 | silmitasertib 0.039 | [5] 0.036 | [6] -0.026

CPD (UniProt O75976)
inactive: [1] 0.002 | [2] 0.032 | [3] -0.101 | [4] -0.008 | entinostat 0.016 | vorinostat 0.019 | citarinostat 0.018 | silmitasertib 0.032 | [5] -0.034 | [6] -0.111

COQ9 (UniProt O75208)
inactive: [1] 0.02 | [2] -0.002 | [3] -0.151 | [4] -0.032 | entinostat 0.045 | vorinostat 0.028 | citarinostat -0.013 | silmitasertib 0.021 | [5] -0.103 | [6] 0.008

COX5B (UniProt P10606)
inactive: [1] 0.041 | [2] 0.031 | [3] 0.053 | [4] -0.015 | entinostat -0.006 | vorinostat -0.151 | citarinostat 0.02 | silmitasertib -0.04 | [5] -0.131 | [6] 0.034

COMMD10 (UniProt Q9Y6G5)
inactive: [1] -0.041 | [2] 0.019 | [3] -0.057 | [4] 0.099 | entinostat -0.004 | vorinostat 0.007 | citarinostat 0.025 | silmitasertib -0.043 | [5] -0.046 | [6] -0.079

COPS3 isoform 2 (UniProt Q9UNS2)
inactive: [1] -0.129 | [2] -0.364 | [3] -0.005 | [4] -0.272 | entinostat -0.007 | vorinostat -0.169 | citarinostat -0.14 | silmitasertib 0 | [5] -0.597 | [6] 0.011

CRACR2A isoform 2 (UniProt Q9BSW2)
inactive: [1] -0.012 | [2] 0.076 | [3] -0.099 | [4] -0.05 | entinostat -0.15 | vorinostat -0.03 | citarinostat -0.016 | silmitasertib 0.103 | [5] 0.054 | [6] 0.134

COQ6 (UniProt Q9Y2Z9)
inactive: [1] -0.018 | [2] 0.002 | [3] -0.05 | [4] 0.011 | entinostat 0.05 | vorinostat 0.034 | citarinostat -0.019 | silmitasertib 0.058 | [5] -0.027 | [6] -0.053

CRYM-AS1 (UniProt A6NIL9)
inactive: [1] 0.038 | [2] -0.014 | [3] 0.27 | [4] 0.042 | entinostat -0.101 | vorinostat 0.014 | citarinostat 0.021 | silmitasertib 0.031 | [5] -0.076 | [6] -0.135

Taken from the listing (2 entries):
COPS8 (UniProt Q99627)
inactive: [1] 0.02 | [2] 0.038 | [3] -0.042 | [4] 0.043 | entinostat 0.034 | vorinostat 0.041 | citarinostat 0.056 | silmitasertib 0.044 | [5] -0.077 | [6] 0.018

COX18 (UniProt Q8N8Q8)
inactive: [1] -0.051 | [2] -0.059 | [3] -0.034 | [4] -0.019 | entinostat -0.027 | vorinostat -0.043 | citarinostat 0.046 | silmitasertib -0.009 | [5] -0.069 | [6] -0.047

Next part

CS (UniProt O75390)
inactive: [1] -0.024 | [2] -0.087 | [3] -0.187 | [4] 0.007 | entinostat 0.001 | vorinostat 0.064 | citarinostat 0.012 | silmitasertib -0.039 | [5] 0.003 | [6] -0.068

CRIPT (UniProt Q9P021)
inactive: [1] -0.094 | [2] 0.04 | [3] 0.119 | [4] -0.016 | entinostat 0.058 | vorinostat -0.003 | citarinostat -0.073 | silmitasertib 0.007 | [5] -0.123 | [6] 0.009

COPS7A (UniProt Q9UBW8)
inactive: [1] 0.038 | [2] 0.04 | [3] -0.057 | [4] -0.031 | entinostat 0.005 | vorinostat 0.075 | citarinostat 0.049 | silmitasertib 0.016 | [5] -0.01 | [6] -0.017

COPRS (UniProt Q9NQ92)
inactive: [1] -0.03 | [2] 0.019 | [3] -0.014 | [4] -0.034 | entinostat -0.037 | vorinostat -0.027 | citarinostat -0.033 | silmitasertib -0.003 | [5] -0.101 | [6] 0.096

COX15 (UniProt Q7KZN9)
inactive: [1] 0.003 | [2] -0.009 | [3] -0.043 | [4] -0.013 | entinostat 0.004 | vorinostat -0.017 | citarinostat 0.048 | silmitasertib 0.022 | [5] 0.028 | [6] -0.064

COPS6 (UniProt Q7L5N1)
inactive: [1] 0.026 | [2] 0.005 | [3] -0.047 | [4] 0.058 | entinostat 0.019 | vorinostat -0.014 | citarinostat 0.026 | silmitasertib -0.004 | [5] -0.044 | [6] -0.025

CREB1 (UniProt P16220)
inactive: [1] 0.002 | [2] -0.038 | [3] -0.024 | [4] -0.068 | entinostat -0.073 | vorinostat -0.154 | citarinostat -0.036 | silmitasertib -0.024 | [5] -0.018 | [6] -0.106

CRPPA (UniProt A4D126)
inactive: [1] -0.04 | [2] -0.019 | [3] -0.013 | [4] -0.004 | entinostat -0.043 | vorinostat -0.057 | citarinostat 0.028 | silmitasertib 0.004 | [5] -0.037 | [6] -0.011

CPSF1 (UniProt Q10570)
inactive: [1] 0.024 | [2] 0.069 | [3] 0.059 | [4] 0.006 | entinostat -0.023 | vorinostat 0.012 | citarinostat -0.025 | silmitasertib 0.052 | [5] 0.099 | [6] -0.139

COPS3 (UniProt Q9UNS2)
inactive: [1] 0 | [2] -0.034 | [3] -0.002 | [4] 0.011 | entinostat 0.002 | vorinostat -0.003 | citarinostat 0.014 | silmitasertib -0.02 | [5] -0.021 | [6] -0.019

CRBN (UniProt Q96SW2)
inactive: [1] -0.021 | [2] 0.01 | [3] -0.048 | [4] 0.023 | entinostat -0.002 | vorinostat -0.043 | citarinostat 0.02 | silmitasertib 0.004 | [5] -0.076 | [6] -0.006

COLGALT1 (UniProt Q8NBJ5)
inactive: [1] 0.007 | [2] 0.026 | [3] -0.045 | [4] 0.053 | entinostat 0.002 | vorinostat -0.022 | citarinostat 0.008 | silmitasertib 0.04 | [5] 0.161 | [6] -0.06

CRYZ (UniProt Q08257)
inactive: [1] -0.031 | [2] -0.062 | [3] -0.005 | [4] -0.013 | entinostat 0 | vorinostat -0.023 | citarinostat 0.042 | silmitasertib -0.017 | [5] -0.061 | [6] -0.028
